Chains of the proteins cited; added tags and fusions are not shown. Lines headed by an entry give the natural chain unless they say otherwise; changes in a name come on top.
UniProt O43837: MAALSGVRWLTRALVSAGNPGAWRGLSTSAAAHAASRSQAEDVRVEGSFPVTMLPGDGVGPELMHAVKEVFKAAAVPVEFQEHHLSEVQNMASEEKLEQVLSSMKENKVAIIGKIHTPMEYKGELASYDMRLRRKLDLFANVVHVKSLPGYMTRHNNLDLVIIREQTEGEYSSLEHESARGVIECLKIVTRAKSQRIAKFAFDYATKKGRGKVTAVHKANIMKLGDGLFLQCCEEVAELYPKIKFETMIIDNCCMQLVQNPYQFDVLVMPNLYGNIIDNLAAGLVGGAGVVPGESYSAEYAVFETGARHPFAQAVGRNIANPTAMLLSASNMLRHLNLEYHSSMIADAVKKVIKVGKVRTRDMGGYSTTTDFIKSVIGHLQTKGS
UniProt P05362: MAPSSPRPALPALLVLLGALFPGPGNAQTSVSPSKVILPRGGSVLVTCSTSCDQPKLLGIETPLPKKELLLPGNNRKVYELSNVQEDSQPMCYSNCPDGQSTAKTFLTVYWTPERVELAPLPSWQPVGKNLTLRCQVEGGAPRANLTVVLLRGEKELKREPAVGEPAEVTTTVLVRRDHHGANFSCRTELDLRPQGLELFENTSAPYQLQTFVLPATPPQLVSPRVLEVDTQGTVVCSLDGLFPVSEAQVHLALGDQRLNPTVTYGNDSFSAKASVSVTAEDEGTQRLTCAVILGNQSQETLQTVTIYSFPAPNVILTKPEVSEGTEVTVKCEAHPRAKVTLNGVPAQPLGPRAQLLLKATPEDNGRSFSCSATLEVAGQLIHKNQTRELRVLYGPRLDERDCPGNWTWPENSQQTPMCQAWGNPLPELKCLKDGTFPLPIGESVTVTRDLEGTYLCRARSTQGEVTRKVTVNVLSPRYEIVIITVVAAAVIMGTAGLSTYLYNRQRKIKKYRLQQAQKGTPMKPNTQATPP
UniProt P13598: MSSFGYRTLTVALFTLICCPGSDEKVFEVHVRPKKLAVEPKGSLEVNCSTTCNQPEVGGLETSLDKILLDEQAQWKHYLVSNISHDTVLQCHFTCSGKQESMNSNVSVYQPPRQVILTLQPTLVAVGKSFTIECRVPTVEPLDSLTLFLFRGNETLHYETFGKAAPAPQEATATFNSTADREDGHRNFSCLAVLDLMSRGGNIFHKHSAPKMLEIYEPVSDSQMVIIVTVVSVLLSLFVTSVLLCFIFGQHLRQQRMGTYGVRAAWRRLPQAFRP
UniProt Q07666, whole entry: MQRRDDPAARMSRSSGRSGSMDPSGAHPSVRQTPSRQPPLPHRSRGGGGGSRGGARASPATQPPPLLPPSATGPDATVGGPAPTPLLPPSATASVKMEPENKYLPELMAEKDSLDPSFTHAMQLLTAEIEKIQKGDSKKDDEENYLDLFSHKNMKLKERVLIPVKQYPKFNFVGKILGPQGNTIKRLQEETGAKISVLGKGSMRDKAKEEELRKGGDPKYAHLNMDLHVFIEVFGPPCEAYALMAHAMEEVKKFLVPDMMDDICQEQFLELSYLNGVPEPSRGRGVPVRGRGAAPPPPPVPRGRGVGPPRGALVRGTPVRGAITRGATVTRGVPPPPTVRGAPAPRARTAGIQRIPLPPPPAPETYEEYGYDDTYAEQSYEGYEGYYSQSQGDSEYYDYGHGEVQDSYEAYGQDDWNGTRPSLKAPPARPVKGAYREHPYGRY
UniProt P15814: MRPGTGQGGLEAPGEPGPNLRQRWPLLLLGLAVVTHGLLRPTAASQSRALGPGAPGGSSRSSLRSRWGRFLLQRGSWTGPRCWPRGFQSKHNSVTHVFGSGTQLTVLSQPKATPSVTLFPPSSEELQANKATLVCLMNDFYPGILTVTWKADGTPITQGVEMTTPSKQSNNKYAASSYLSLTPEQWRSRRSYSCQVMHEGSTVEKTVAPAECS
UniProt P78318: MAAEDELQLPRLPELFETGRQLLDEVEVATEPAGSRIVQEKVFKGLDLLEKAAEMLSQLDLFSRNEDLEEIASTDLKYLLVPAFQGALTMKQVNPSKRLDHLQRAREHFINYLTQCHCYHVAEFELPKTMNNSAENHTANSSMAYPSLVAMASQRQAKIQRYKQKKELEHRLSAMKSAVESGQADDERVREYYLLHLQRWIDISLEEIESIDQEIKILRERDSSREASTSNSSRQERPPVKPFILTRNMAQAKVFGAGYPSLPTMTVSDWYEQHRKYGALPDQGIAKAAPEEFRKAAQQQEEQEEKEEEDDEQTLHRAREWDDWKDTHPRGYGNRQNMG
UniProt O75874, whole entry: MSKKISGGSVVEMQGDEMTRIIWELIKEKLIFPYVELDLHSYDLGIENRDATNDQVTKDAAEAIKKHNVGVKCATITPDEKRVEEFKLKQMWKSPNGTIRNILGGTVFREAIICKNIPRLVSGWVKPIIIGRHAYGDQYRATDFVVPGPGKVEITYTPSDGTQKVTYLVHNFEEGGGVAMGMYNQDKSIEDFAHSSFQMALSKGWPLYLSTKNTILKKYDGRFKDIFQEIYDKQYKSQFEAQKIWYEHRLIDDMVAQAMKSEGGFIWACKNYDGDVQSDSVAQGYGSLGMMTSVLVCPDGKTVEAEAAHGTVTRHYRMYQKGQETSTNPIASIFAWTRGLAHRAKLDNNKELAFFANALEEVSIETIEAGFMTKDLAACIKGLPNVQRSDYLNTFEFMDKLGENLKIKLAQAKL
UniProt Q9P2J3: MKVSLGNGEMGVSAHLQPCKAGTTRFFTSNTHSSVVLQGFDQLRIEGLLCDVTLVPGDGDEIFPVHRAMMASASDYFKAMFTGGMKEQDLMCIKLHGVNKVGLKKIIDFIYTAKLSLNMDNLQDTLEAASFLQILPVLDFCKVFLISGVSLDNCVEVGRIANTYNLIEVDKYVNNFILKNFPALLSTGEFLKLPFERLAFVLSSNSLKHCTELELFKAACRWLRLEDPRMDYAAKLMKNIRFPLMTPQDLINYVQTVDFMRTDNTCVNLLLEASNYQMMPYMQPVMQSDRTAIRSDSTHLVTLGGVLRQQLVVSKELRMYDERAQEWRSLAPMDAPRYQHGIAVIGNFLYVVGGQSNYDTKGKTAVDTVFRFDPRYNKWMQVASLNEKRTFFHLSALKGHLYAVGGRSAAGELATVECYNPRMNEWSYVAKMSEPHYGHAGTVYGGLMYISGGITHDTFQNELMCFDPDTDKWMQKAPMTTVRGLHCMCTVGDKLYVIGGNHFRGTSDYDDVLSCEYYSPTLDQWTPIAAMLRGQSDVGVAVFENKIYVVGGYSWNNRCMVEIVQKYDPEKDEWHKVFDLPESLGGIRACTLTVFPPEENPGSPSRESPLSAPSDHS
UniProt Q14678: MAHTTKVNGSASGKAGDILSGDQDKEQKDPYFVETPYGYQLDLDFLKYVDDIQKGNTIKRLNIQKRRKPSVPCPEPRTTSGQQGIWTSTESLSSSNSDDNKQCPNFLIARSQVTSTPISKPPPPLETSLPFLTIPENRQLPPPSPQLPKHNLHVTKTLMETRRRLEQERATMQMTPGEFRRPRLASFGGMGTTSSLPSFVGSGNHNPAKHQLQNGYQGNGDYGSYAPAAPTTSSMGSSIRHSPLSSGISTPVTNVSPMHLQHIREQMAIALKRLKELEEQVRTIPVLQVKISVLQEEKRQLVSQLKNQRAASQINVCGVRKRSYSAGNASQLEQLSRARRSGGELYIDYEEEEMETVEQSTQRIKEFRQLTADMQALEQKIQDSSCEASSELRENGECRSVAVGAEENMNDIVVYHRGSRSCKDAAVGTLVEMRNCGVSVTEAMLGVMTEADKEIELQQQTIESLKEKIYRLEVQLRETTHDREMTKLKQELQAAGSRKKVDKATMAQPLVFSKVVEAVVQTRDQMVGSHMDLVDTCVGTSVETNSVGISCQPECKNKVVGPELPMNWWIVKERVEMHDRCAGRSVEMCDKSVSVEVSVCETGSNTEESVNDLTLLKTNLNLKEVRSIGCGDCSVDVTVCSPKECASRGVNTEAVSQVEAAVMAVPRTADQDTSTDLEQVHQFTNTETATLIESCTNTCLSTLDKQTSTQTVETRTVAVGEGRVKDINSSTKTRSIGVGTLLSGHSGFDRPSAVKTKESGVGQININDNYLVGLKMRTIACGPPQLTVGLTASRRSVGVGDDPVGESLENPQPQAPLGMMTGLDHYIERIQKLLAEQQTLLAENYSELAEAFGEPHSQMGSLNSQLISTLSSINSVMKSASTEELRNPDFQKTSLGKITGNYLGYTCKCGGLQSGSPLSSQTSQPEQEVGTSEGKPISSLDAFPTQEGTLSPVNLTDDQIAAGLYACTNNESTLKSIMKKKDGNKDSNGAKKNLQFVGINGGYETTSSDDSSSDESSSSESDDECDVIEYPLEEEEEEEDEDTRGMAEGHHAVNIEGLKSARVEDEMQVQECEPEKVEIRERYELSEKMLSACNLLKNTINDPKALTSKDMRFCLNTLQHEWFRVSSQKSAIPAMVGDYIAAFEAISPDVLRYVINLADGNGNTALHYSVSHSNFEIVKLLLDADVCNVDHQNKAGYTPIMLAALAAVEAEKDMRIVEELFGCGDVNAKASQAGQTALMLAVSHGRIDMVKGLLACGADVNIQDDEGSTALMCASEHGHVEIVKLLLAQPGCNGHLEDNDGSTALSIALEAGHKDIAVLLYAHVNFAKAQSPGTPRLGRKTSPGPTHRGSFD
UniProt Q9NX62: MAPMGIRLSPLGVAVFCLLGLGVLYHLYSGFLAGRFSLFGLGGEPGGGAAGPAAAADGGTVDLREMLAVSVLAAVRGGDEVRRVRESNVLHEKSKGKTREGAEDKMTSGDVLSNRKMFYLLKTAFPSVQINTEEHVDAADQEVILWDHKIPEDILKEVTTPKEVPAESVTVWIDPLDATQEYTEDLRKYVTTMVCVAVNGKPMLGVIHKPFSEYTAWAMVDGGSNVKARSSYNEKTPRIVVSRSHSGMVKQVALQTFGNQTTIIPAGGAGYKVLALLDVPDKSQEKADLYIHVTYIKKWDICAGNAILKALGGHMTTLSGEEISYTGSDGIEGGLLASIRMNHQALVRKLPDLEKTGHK
UniProt P46940, whole entry: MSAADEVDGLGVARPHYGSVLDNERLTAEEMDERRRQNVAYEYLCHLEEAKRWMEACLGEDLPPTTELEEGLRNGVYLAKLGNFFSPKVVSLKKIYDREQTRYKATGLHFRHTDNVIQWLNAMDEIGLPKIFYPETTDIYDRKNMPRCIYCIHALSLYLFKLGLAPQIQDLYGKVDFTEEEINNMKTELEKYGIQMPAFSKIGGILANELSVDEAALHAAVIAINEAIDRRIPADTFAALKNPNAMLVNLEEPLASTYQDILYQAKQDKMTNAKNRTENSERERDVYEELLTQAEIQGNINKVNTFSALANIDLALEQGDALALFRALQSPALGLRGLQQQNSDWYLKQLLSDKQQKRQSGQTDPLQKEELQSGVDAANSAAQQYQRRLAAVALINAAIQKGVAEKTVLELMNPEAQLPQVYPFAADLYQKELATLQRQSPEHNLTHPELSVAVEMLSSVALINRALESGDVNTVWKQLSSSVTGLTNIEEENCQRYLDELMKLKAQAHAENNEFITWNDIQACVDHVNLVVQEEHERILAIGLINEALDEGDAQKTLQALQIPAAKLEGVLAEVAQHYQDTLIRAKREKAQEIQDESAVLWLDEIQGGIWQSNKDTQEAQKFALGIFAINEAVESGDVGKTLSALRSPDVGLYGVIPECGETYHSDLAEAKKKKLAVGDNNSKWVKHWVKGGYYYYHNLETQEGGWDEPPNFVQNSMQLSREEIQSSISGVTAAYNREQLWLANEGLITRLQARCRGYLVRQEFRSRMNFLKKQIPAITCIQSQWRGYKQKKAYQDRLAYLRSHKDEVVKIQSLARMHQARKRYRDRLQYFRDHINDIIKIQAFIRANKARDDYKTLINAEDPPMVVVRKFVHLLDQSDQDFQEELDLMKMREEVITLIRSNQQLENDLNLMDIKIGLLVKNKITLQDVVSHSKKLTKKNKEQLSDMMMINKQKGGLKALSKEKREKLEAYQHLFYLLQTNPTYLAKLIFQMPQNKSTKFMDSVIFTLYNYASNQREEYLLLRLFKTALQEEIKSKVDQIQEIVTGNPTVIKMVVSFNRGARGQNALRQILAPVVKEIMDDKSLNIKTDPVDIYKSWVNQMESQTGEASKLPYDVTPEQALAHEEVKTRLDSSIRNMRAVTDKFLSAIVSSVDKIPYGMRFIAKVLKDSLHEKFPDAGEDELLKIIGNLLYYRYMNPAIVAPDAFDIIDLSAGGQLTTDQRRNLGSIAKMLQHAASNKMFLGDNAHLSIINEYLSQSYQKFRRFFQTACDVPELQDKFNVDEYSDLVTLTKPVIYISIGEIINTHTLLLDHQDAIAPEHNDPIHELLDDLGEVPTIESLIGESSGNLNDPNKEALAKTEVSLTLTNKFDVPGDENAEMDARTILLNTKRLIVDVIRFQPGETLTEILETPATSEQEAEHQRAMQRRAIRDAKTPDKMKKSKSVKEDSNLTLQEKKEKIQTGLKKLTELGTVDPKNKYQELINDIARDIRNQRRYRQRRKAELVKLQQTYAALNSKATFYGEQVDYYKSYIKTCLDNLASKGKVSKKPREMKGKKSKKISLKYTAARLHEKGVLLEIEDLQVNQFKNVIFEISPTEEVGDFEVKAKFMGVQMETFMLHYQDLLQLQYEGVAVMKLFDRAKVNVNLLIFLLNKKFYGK

Some of the results follow.
What follows are targets tested with COc1ccc(Cn2ccc3cc(C)c(C(=O)NO)cc32)cc1 (assay: dose-dependent thermal stabilisation call (2D-TPP, DLPTP, 10% FDR) (binary (1 = stabilised)); higher = stabilised by the compound). Details: system: HL-60 intact cells; concentration range 0.04-10 µM.
Protocol: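 2D thermal proteome profiling in intact HL-60 cells treated with BRD-3811 (0, 0.04, 0.29, 2, 10 uM) for 90 min at 37 C, then heated 3 min at one of 12 temperatures (42-63.9 C). Soluble protein was quantified by TMT10 MS. The value is the DLPTP call of the paper: dose-dependent thermal stabilisation over all temperatures at 10% FDR (F-test of a dose-response against a flat model); one experiment, one call per tested protein.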
In the case of KLHL36 (UniProt Q8N4N3), the “dose-dependent thermal stabilisation call” value is reported as inactive: 0.
For KIAA0174 (UniProt P53990), the “dose-dependent thermal stabilisation call” value was inactive: 0.
For IDH3B (UniProt O43837), the “dose-dependent thermal stabilisation call” value was inactive: 0.
For JUNB (UniProt P17275), the “dose-dependent thermal stabilisation call” value was inactive: 0.
In the case of KIAA0746 (UniProt Q68CR1), the “dose-dependent thermal stabilisation call” value is reported as inactive: 0.
In the case of IPO13 (UniProt O94829), the “dose-dependent thermal stabilisation call” value is reported as inactive: 0.
KIAA0892 (UniProt Q9Y6X3) was tested, and the “dose-dependent thermal stabilisation call” value was inactive: 0.
In the case of ICAM1 (UniProt P05362), the “dose-dependent thermal stabilisation call” value is reported as inactive: 0.
In the case of ICAM2 (UniProt P13598), the “dose-dependent thermal stabilisation call” value is reported as inactive: 0.
With KLHL26 (UniProt Q53HC5) the “dose-dependent thermal stabilisation call” value was inactive: 0.
KIAA1143 (UniProt Q96AT1) was tested, and the “dose-dependent thermal stabilisation call” value was inactive: 0.
KIF5B (UniProt P33176) was tested, and the “dose-dependent thermal stabilisation call” value was inactive: 0.
KPNB1 (UniProt Q14974) was tested, and the “dose-dependent thermal stabilisation call” value was inactive: 0.
For KIAA1609 (UniProt Q6P9B6), the “dose-dependent thermal stabilisation call” value was inactive: 0.
With KIAA0415 (UniProt O43299) the “dose-dependent thermal stabilisation call” value was inactive: 0.
For KIAA1618 (UniProt Q63HN8), the “dose-dependent thermal stabilisation call” value was inactive: 0.
With JUN (UniProt P05412) the “dose-dependent thermal stabilisation call” value was inactive: 0.
KHDRBS1 (UniProt Q07666) was tested, and the “dose-dependent thermal stabilisation call” value was inactive: 0.
With IGLL1 (UniProt P15814) the “dose-dependent thermal stabilisation call” value was inactive: 0.
For KIDINS220 (UniProt Q9ULH0), the “dose-dependent thermal stabilisation call” value was inactive: 0.
For IGBP1 (UniProt P78318), the “dose-dependent thermal stabilisation call” value was inactive: 0.
In the case of ING1 (UniProt Q9UK53), the “dose-dependent thermal stabilisation call” value is reported as inactive: 0.
ITPR1 (UniProt Q14643) was tested, and the “dose-dependent thermal stabilisation call” value was inactive: 0.
For ICAM3 (UniProt P32942), the “dose-dependent thermal stabilisation call” value was inactive: 0.
JUND (UniProt P17535) was tested, and the “dose-dependent thermal stabilisation call” value was inactive: 0.
IDH1 (UniProt O75874) was tested, and the “dose-dependent thermal stabilisation call” value was inactive: 0.
With KIAA1467 (UniProt A2RU67) the “dose-dependent thermal stabilisation call” value was inactive: 0.
In the case of INF2 (UniProt Q27J81), the “dose-dependent thermal stabilisation call” value is reported as inactive: 0.
With KLHL9 (UniProt Q9P2J3) the “dose-dependent thermal stabilisation call” value was inactive: 0.
KANK1 (UniProt Q14678) was tested, and the “dose-dependent thermal stabilisation call” value was inactive: 0.
For IMPAD1 (UniProt Q9NX62), the “dose-dependent thermal stabilisation call” value was inactive: 0.
In the case of ITGB1 (UniProt P05556), the “dose-dependent thermal stabilisation call” value is reported as inactive: 0.
In the case of IFNGR1 (UniProt P15260), the “dose-dependent thermal stabilisation call” value is reported as inactive: 0.
With IQGAP1 (UniProt P46940) the “dose-dependent thermal stabilisation call” value was inactive: 0.
With ISL2 (UniProt Q96A47) the “dose-dependent thermal stabilisation call” value was inactive: 0.
In the case of IDE (UniProt P14735), the “dose-dependent thermal stabilisation call” value is reported as inactive: 0.
With INPP5B (UniProt P32019) the “dose-dependent thermal stabilisation call” value was inactive: 0.
In the case of KIF11 (UniProt P52732), the “dose-dependent thermal stabilisation call” value is reported as inactive: 0.
IL18 (UniProt Q14116) was tested, and the “dose-dependent thermal stabilisation call” value was inactive: 0.
IBTK (UniProt Q9P2D0) was tested, and the “dose-dependent thermal stabilisation call” value was inactive: 0.

— the supplement of paper PMC7666118
